# Test results published in the supplement of paper PMC8728848.
# The other results are listed elsewhere or left out.
# B1: Ovorubin (Pomacea canaliculata), J7I2T6 (protein)
# chain: MFVATSLLLAIATLVVRASPHNYLIMDIEPPKSVSERDILNLLSPLQVKHSFRVTGSTRLLIVIRLDAQSYEKLDEITVPGKVEVIPAVNMADTMERCGVSWPRVELTDDNVTLFESESTLTDVTKEQLKAMLIGYGEHMSGLLQAHRFEYYQAAGATPHRHFVFVNSVPDEIEVFGREGVDIWGGPGEFVVKPQYVTRI
# Legend:
# Assay in all cases: glycan array binding signal (z-score within array); higher = stronger binding
# Conditions in all cases: glycan notation: IUPAC condensed, linker removed
# [1] = target: Fuc(a1-2)[GalNAc(a1-3)]Gal(b1-3)GlcNAc(b1-3)GalNAc
# Procedure, shortened: (§1)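 Columns mapping to the same glycan were averaged after glycan names were converted to IUPAC-condensed notation. The data come from 3228 arrays in the Consortium for Functional Glycomics database, limited to those with an available protein sequence. Binding is reported as a within-array Z-score averaged across arrays of one protein sequence and across linkers.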
# [2] = target: Fuc(a1-2)[GalNAc(a1-3)]Gal(b1-3)GlcNAc(b1-6)GalNAc
# Procedure, shortened: as §1
# [3] = target: Fuc(a1-2)[GalNAc(a1-3)]Gal(b1-4)Glc
# Procedure, shortened: as §1
# [4] = target: Fuc(a1-2)[GalNAc(a1-3)]Gal(b1-4)GlcNAc
# Procedure, shortened: as §1
# [5] = target: Fuc(a1-2)[GalNAc(a1-3)]Gal(b1-4)GlcNAc(b1-2)Man
# Procedure, shortened: as §1
# [6] = target: Fuc(a1-2)[GalNAc(a1-3)]Gal(b1-4)GlcNAc(b1-2)Man(a1-3)[Fuc(a1-2)[GalNAc(a1-3)]Gal(b1-4)GlcNAc(b1-2)Man(a1-6)]Man(b1-4)GlcNAc(b1-4)GlcNAc
# Procedure, shortened: as §1
# [7] = target: Fuc(a1-2)[GalNAc(a1-3)]Gal(b1-4)GlcNAc(b1-2)Man(a1-3)[Fuc(a1-2)[GalNAc(a1-3)]Gal(b1-4)GlcNAc(b1-2)Man(a1-6)]Man(b1-4)GlcNAc(b1-4)[Fuc(a1-6)]GlcNAc
# Procedure, shortened: as §1
# [8] = target: Fuc(a1-2)[GalNAc(a1-3)]Gal(b1-4)GlcNAc(b1-3)Gal(b1-4)GlcNAc
# Procedure, shortened: as §1
# [9] = target: Fuc(a1-2)[GalNAc(a1-3)]Gal(b1-4)GlcNAc(b1-3)Gal(b1-4)GlcNAc(b1-3)Gal(b1-4)GlcNAc
# Procedure, shortened: as §1
# [10] = target: Fuc(a1-2)[GalNAc(a1-3)]Gal(b1-4)GlcNAc(b1-3)GalNAc
# Procedure, shortened: as §1
# [11] = target: Fuc(a1-2)[GalNAc(a1-3)]Gal(b1-4)GlcNAc(b1-3)[Fuc(a1-2)[GalNAc(a1-3)]Gal(b1-4)GlcNAc(b1-6)]GalNAc
# Procedure, shortened: as §1
# [12] = target: Fuc(a1-2)[GalNAc(a1-3)]Gal(b1-4)GlcNAc(b1-6)GalNAc
# Procedure, shortened: as §1
# [13] = target: Fuc(a1-2)[GalNAc(a1-3)]Gal(b1-4)[Fuc(a1-3)]GlcNAc
# Procedure, shortened: as §1
# [14] = target: Fuc(a1-2)[GalNAc(a1-3)]Gal(b1-4)[Fuc(a1-3)]GlcNAc(b1-3)GalNAc
# Procedure, shortened: as §1
# [15] = target: Fuc(a1-2)[GalNAc(a1-4)]Gal(b1-4)GlcNAc
# Procedure, shortened: as §1
# [16] = target: Fuc(a1-2)[GalNAc(b1-3)]Gal
# Procedure, shortened: as §1
# Fuc(a1-3)GlcNAc = target: Fuc(a1-3)GlcNAc
# Procedure, shortened: as §1
# [17] = target: Fuc(a1-3)[Gal(b1-4)]Glc6S
# Procedure, shortened: as §1
# [18] = target: Fuc(a1-3)[Gal(b1-4)]GlcNAc
# Procedure, shortened: as §1
# [19] = target: Fuc(a1-3)[Gal(b1-4)]GlcNAc(b1-2)Man
# Procedure, shortened: as §1
# [20] = target: Fuc(a1-3)[Gal(b1-4)]GlcNAc(b1-2)Man(a1-3)[Fuc(a1-3)[Gal(b1-4)]GlcNAc(b1-2)Man(a1-6)]Man(b1-4)GlcNAc(b1-4)GlcNAc
# Procedure, shortened: as §1
# [21] = target: Fuc(a1-3)[Gal(b1-4)]GlcNAc(b1-2)Man(a1-3)[Fuc(a1-3)[Gal(b1-4)]GlcNAc(b1-2)Man(a1-6)]Man(b1-4)GlcNAc(b1-4)[Fuc(a1-6)]GlcNAc
# Procedure, shortened: as §1
# [22] = target: Fuc(a1-3)[Gal(b1-4)]GlcNAc(b1-3)Gal(b1-3)[Fuc(a1-4)]GlcNAc
# Procedure, shortened: as §1
# [23] = target: Fuc(a1-3)[Gal(b1-4)]GlcNAc(b1-3)Gal(b1-4)[Fuc(a1-3)]GlcNAc
# Procedure, shortened: as §1
# [24] = target: Fuc(a1-3)[Gal(b1-4)]GlcNAc(b1-3)Gal(b1-4)[Fuc(a1-3)]GlcNAc(b1-3)Gal(b1-4)[Fuc(a1-3)]GlcNAc
# Procedure, shortened: as §1
# [25] = target: Fuc(a1-3)[Gal(b1-4)]GlcNAc(b1-3)GalNAc
# Procedure, shortened: as §1
# [26] = target: Fuc(a1-3)[Gal(b1-4)]GlcNAc(b1-6)GalNAc
# Procedure, shortened: as §1
# [27] = target: Fuc(a1-3)[Gal(b1-4)]GlcNAc(b1-6)[Gal(b1-3)GlcNAc(b1-3)]Gal(b1-4)Glc
# Procedure, shortened: as §1
# [28] = target: Fuc(a1-3)[Gal(b1-4)]GlcNAc6S
# Procedure, shortened: as §1
# [29] = target: Fuc(a1-3)[Gal3S(b1-4)]Glc
# Procedure, shortened: as §1
# [30] = target: Fuc(a1-3)[Gal3S(b1-4)]GlcNAc
# Procedure, shortened: as §1
# [31] = target: Fuc(a1-3)[Gal3S(b1-4)]GlcNAc6S
# Procedure, shortened: as §1
# [32] = target: Fuc(a1-3)[GalNAc(b1-4)]GlcNAc
# Procedure, shortened: as §1
# [33] = target: Fuc(a1-3)[GalNAc(b1-4)]GlcNAc6S
# Procedure, shortened: as §1
# Fuc(a1-4)GlcNAc = target: Fuc(a1-4)GlcNAc
# Procedure, shortened: as §1
# Fuc(b1-3)GlcNAc = target: Fuc(b1-3)GlcNAc
# Procedure, shortened: as §1
# Gal(a1-2)Gal = target: Gal(a1-2)Gal
# Procedure, shortened: as §1
# Gal(a1-3)Gal = target: Gal(a1-3)Gal
# Procedure, shortened: as §1
# Gal(a1-3)Gal(b1-3)GlcNAc = target: Gal(a1-3)Gal(b1-3)GlcNAc
# Procedure, shortened: as §1
# [34] = target: Gal(a1-3)Gal(b1-3)GlcNAc(b1-2)Man
# Procedure, shortened: as §1
# [35] = target: Gal(a1-3)Gal(b1-3)GlcNAc(b1-2)Man(a1-3)[Gal(a1-3)Gal(b1-3)GlcNAc(b1-2)Man(a1-6)]Man(b1-4)GlcNAc(b1-4)GlcNAc
# Procedure, shortened: as §1
# [36] = target: Gal(a1-3)Gal(b1-3)GlcNAc(b1-3)GalNAc
# Procedure, shortened: as §1
# [37] = target: Gal(a1-3)Gal(b1-3)GlcNAc(b1-6)GalNAc
# Procedure, shortened: as §1
# [38] = target: Gal(a1-3)Gal(b1-3)[Fuc(a1-4)]GlcNAc(b1-2)Man(a1-3)[Gal(a1-3)Gal(b1-3)[Fuc(a1-4)]GlcNAc(b1-2)Man(a1-6)]Man(b1-4)GlcNAc(b1-4)GlcNAc
# Procedure, shortened: as §1
# Gal(a1-3)Gal(b1-4)Glc = target: Gal(a1-3)Gal(b1-4)Glc
# Procedure, shortened: as §1
binder,measurement,setting,value
B1,glycan array binding signal (z-score),[1],-0.128
same,glycan array binding signal (z-score),[2],2.54
same,glycan array binding signal (z-score),[3],-0.263
same,glycan array binding signal (z-score),[4],-0.588
same,glycan array binding signal (z-score),[5],0.353
same,glycan array binding signal (z-score),[6],-0.645
same,glycan array binding signal (z-score),[7],-0.003
same,glycan array binding signal (z-score),[8],-0.679
same,glycan array binding signal (z-score),[9],-0.704
same,glycan array binding signal (z-score),[10],-0.326
same,glycan array binding signal (z-score),[11],-0.753
same,glycan array binding signal (z-score),[12],-1.21
same,glycan array binding signal (z-score),[13],-0.647
same,glycan array binding signal (z-score),[14],0.061
same,glycan array binding signal (z-score),[15],-0.576
same,glycan array binding signal (z-score),[16],-0.423
same,glycan array binding signal (z-score),Fuc(a1-3)GlcNAc,-0.985
same,glycan array binding signal (z-score),[17],-0.226
same,glycan array binding signal (z-score),[18],-0.033
same,glycan array binding signal (z-score),[19],-0.081
same,glycan array binding signal (z-score),[20],0.055
same,glycan array binding signal (z-score),[21],-0.362
same,glycan array binding signal (z-score),[22],-0.594
same,glycan array binding signal (z-score),[23],0.745
same,glycan array binding signal (z-score),[24],0.056
same,glycan array binding signal (z-score),[25],-0.376
same,glycan array binding signal (z-score),[26],0.355
same,glycan array binding signal (z-score),[27],0.356
same,glycan array binding signal (z-score),[28],-0.121
same,glycan array binding signal (z-score),[29],-0.645
same,glycan array binding signal (z-score),[30],-0.035
same,glycan array binding signal (z-score),[31],1.17
same,glycan array binding signal (z-score),[32],1.12
same,glycan array binding signal (z-score),[33],0.872
same,glycan array binding signal (z-score),Fuc(a1-4)GlcNAc,-0.916
same,glycan array binding signal (z-score),Fuc(b1-3)GlcNAc,-0.519
same,glycan array binding signal (z-score),Gal(a1-2)Gal,-0.308
same,glycan array binding signal (z-score),Gal(a1-3)Gal,-0.576
same,glycan array binding signal (z-score),Gal(a1-3)Gal(b1-3)GlcNAc,-0.369
same,glycan array binding signal (z-score),[34],-1.05
same,glycan array binding signal (z-score),[35],0.869
same,glycan array binding signal (z-score),[36],-0.803
same,glycan array binding signal (z-score),[37],0.354
same,glycan array binding signal (z-score),[38],0.574
same,glycan array binding signal (z-score),Gal(a1-3)Gal(b1-4)Glc,-0.393

# Exported as tab-separated lines: part of the list above.
binder	measurement	setting	value
B1	glycan array binding signal (z-score)	[18]	-0.033
same	glycan array binding signal (z-score)	[27]	0.356
same	glycan array binding signal (z-score)	[29]	-0.645
same	glycan array binding signal (z-score)	Gal(a1-3)Gal(b1-4)Glc	-0.393
